Values from PubChem BioAssay AID504764 (Drosophila RNAi Screening Center, 2011).
The screen tested about 22,000 reagents; below is a random part of those that have a named target and a result. Over the whole deposit, 403 (1.9%) are marked active. 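Unnormalised raw counts per well; ratio z-scores behind the hit calls and whether each hit raises or lowers signal are not deposited.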 The record does not give: the amount of reagent.

Aim: 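Genome-wide screen for regulators of Notch-driven gene expression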 (primary screen)
Cells: Drosophila Kc167 cells
Knock-down reagent: long dsRNA against Drosophila genes
Duration: about 5 days (4 days dsRNA, then 24 h after transfection)
Treatment: transfection of constitutively active membrane-tethered Notch lacking the extracellular domain, read 24 h later
Read-out: 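Light from a Notch-responsive E(spl)m3 luciferase reporter under active Notch, with control-promoter and no-Notch reporter wells to normalise; raw counts from paired wells a and b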
Direction: induced reporter light, run 1, well a and induced reporter light, run 1, well b: higher = more light from the Notch target reporter with active Notch; control promoter light, run 1, well a and control promoter light, run 1, well b: higher = more light from the viral control promoter (cell number, transfection, viability); uninduced reporter light, run 1, well a: higher = more light from the Notch target reporter without active Notch
Active means: 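Hit if the duplicate-averaged log2 ratio of induced to control-promoter light gives a plate-wise z beyond ±2, or induced to uninduced beyond ±1.8; weak-control or discordant-duplicate wells dropped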
Calls: active = modifier hit (raised or lowered Notch signal); inactive = not a hit

With knock-down of CR15821 (pseudo) [DRSC08481] the results were induced reporter light, run 1, well a = 1.36e5; induced reporter light, run 1, well b = 1.33e5; control promoter light, run 1, well a = 1.62e5; control promoter light, run 1, well b = 1.47e5; uninduced reporter light, run 1, well a = 8195; inactive. Knock-down of Nepl4 (Neprilysin-like 4) [DRSC03239] came out at: induced reporter light, run 1, well a = 78175; induced reporter light, run 1, well b = 83460; control promoter light, run 1, well a = 66565; control promoter light, run 1, well b = 73415; uninduced reporter light, run 1, well a = 5225; inactive. Against eIF3m (eukaryotic translation initiation factor 3 subunit m) [DRSC07142], the values are induced reporter light, run 1, well a = 32505; induced reporter light, run 1, well b = 27835; control promoter light, run 1, well a = 29560; control promoter light, run 1, well b = 32005; uninduced reporter light, run 1, well a = 2530; inactive. Against CG13443 [DRSC06403], the entry reads induced reporter light, run 1, well a = 1.06e5; induced reporter light, run 1, well b = 1.74e5; control promoter light, run 1, well a = 1.59e5; control promoter light, run 1, well b = 1.80e5; uninduced reporter light, run 1, well a = 8580; inactive. Silencing of l(2)05287 (lethal (2) 05287) [DRSC02151] resulted in: induced reporter light, run 1, well a = 98120; induced reporter light, run 1, well b = 1.33e5; control promoter light, run 1, well a = 1.02e5; control promoter light, run 1, well b = 81025; uninduced reporter light, run 1, well a = 7025; inactive. With knock-down of l(2)05287 (lethal (2) 05287) [DRSC02152] the results were induced reporter light, run 1, well a = 49875; induced reporter light, run 1, well b = 37490; control promoter light, run 1, well a = 35285; control promoter light, run 1, well b = 25115; uninduced reporter light, run 1, well a = 2585; inactive.

Depletion of r (rudimentary) [DRSC19813] resulted in: induced reporter light, run 1, well a = 31080; induced reporter light, run 1, well b = 37605; control promoter light, run 1, well a = 47025; control promoter light, run 1, well b = 29285; uninduced reporter light, run 1, well a = 6510; inactive. After knock-down of r (rudimentary) [DRSC19814] the results were induced reporter light, run 1, well a = 56210; induced reporter light, run 1, well b = 54960; control promoter light, run 1, well a = 67180; control promoter light, run 1, well b = 57850; uninduced reporter light, run 1, well a = 8755; inactive. Against CG10184 [DRSC14204], the values are induced reporter light, run 1, well a = 1.88e5; induced reporter light, run 1, well b = 1.83e5; control promoter light, run 1, well a = 2.49e5; control promoter light, run 1, well b = 2.49e5; uninduced reporter light, run 1, well a = 16692; inactive. Depletion of CG14868 [DRSC14991] came out at: induced reporter light, run 1, well a = 1.70e5; induced reporter light, run 1, well b = 1.94e5; control promoter light, run 1, well a = 2.67e5; control promoter light, run 1, well b = 3.02e5; uninduced reporter light, run 1, well a = 13640; inactive. After knock-down of Sox21a [DRSC10819], the record shows induced reporter light, run 1, well a = 1.55e5; induced reporter light, run 1, well b = 1.62e5; control promoter light, run 1, well a = 1.92e5; control promoter light, run 1, well b = 1.71e5; uninduced reporter light, run 1, well a = 6915; inactive. With knock-down of CG4066 [DRSC15541], the screen gave induced reporter light, run 1, well a = 73570; induced reporter light, run 1, well b = 70195; control promoter light, run 1, well a = 87990; control promoter light, run 1, well b = 71880; uninduced reporter light, run 1, well a = 3815; inactive.

After knock-down of Mcm7 (Minichromosome maintenance 7) [DRSC11219], the record shows induced reporter light, run 1, well a = 1.01e5; induced reporter light, run 1, well b = 82870; control promoter light, run 1, well a = 72135; control promoter light, run 1, well b = 48780; uninduced reporter light, run 1, well a = 8160; inactive. Knock-down of CG9917 [DRSC20218] gave: induced reporter light, run 1, well a = 1.41e5; induced reporter light, run 1, well b = 1.84e5; control promoter light, run 1, well a = 2.15e5; control promoter light, run 1, well b = 1.86e5; uninduced reporter light, run 1, well a = 10830; inactive. After knock-down of TwdlU (TweedleU) [DRSC12224], the record shows induced reporter light, run 1, well a = 1.78e5; induced reporter light, run 1, well b = 1.80e5; control promoter light, run 1, well a = 1.22e5; control promoter light, run 1, well b = 98275; uninduced reporter light, run 1, well a = 9582; inactive. For Hr3 (Hormone receptor 3) [DRSC06118], the entry reads induced reporter light, run 1, well a = 16955; induced reporter light, run 1, well b = 16225; control promoter light, run 1, well a = 25160; control promoter light, run 1, well b = 24100; uninduced reporter light, run 1, well a = 4630; inactive. Against Hr3 (Hormone receptor 3) [DRSC07441], the values are induced reporter light, run 1, well a = 2.04e5; induced reporter light, run 1, well b = 1.99e5; control promoter light, run 1, well a = 1.43e5; control promoter light, run 1, well b = 1.51e5; uninduced reporter light, run 1, well a = 14805; inactive. Depletion of CG13722 [DRSC08331] gave: induced reporter light, run 1, well a = 1.85e5; induced reporter light, run 1, well b = 2.05e5; control promoter light, run 1, well a = 2.04e5; control promoter light, run 1, well b = 2.16e5; uninduced reporter light, run 1, well a = 9280; inactive.

Against CG13722 [DRSC21616] the deposit lists inactive.

Only “induced reporter light, run 1, well a” (3 entries from above):
CG4066 [DRSC15541] = 73570
Mcm7 (Minichromosome maintenance 7) [DRSC11219] = 1.01e5
CG9917 [DRSC20218] = 1.41e5
